The list shows a part of the results.

For this assay, the system named is SARS-CoV-2 frameshift pseudoknot (PK) RNA. The assay can be described thus: NMR binding call after quantification (hit when 2 of 3 NMR criteria are met) (binary (1 = binding, 0 = not binding)); higher = binding. To be noted: RNA concentration 10 µM; fragment concentration 200 µM; 293 K.
Take `CC(=O)Nc1cccc2nonc12`: the NMR binding call is 0.
The value for `CCNc1ccc(C#N)cn1` was 0; that for `CC1CCC(C(=O)N2CCC=C(F)C2)O1` (stereo not given) was 0.
With `CC(C)NCc1ccc(N(C)C)cc1`, the NMR binding call was 0.
As for `Cc1cc(C(=O)NCc2cccs2)no1`, the figure is 0; as for `CCOC(=O)NCc1ccccc1`, 0.
As for `CS(=O)(=O)N1CCCC(C(=O)O)C1` (stereo not given), the figure is 0; as for `CNC(=O)c1nc2ccccc2c(=O)[nH]1`, 0; as for `CC(C)(C)C1CCN(C(=O)c2ccccc2)CC1`, 0.
Turning to `CC(=O)NC1CNc2ccccc2C1` (stereo not given), the NMR binding call is 0.
The value for `CN1CCC(Oc2cccc(F)c2)C1=O` (stereo not given) was 0; that for `CNC1CCN(c2ccccc2F)C1=O.Cl` (stereo not given) was 0.
The value for `CC(=O)NCCN1CCCCCC1` was 0; that for `CCNC(=O)c1c[nH]nn1` was 0; that for `CC(=O)NCC1(O)CCCC1` was 0.
As for `CC(=O)Nc1ccc(CN2CCOCC2)cc1`, the figure is 0.
With `O=C(O)Cc1ccc(-c2ccccc2)cc1`, the NMR binding call is 0.
The value for `Cc1noc(NC(=O)CC2CCCC2)n1` was 0.
As for `COc1ccc(C(=O)C2CCNCC2)cc1`, the figure is 0; as for `NC(=O)c1ccc(OCc2ccccc2)cc1`, 0; as for `O=C(c1ccc2c(c1)OCO2)N1CCCCCC1`, 0.
As for `CN(C)C(=O)OCCn1ccnc1`, the figure is 0.
In the case of `CC(C)NC(=O)c1ccc2ccccc2n1`, the NMR binding call is 0.
As for `CCC(=O)Nc1nc(C)cs1`, the figure is 0; as for `Cc1ccc(NC(=O)C2CCCO2)nc1` (stereo not given), 0; as for `NC(=O)c1ccnc(NC2CC=CC2)c1`, 0.
The value for `Cl.NC1CCN(S(=O)(=O)c2ccccc2)C1` (stereo not given) was 0; that for `O=C(NCc1ccco1)Nc1ccc(F)cc1` was 0.
The value for `Cc1cc(N(C)C2CC(O)C2)nc(C)n1` (stereo not given) was 0; that for `CNC1CCCN(c2ccccc2)C1=O` (stereo not given) was 0; that for `O=C(Nc1ccc(O)cc1)N1CCOCC1` was 0.
On to `O=c1[nH]cc(N2CCCCC2)c(=O)[nH]1`, for which the NMR binding call stood at 0.
The value for `COC(=O)CNC(=O)C1CCCCC1` was 0; that for `Cn1nccc1C(=O)NCc1cccs1` was 0.
The value for `Cc1nn(C)c(C)c1NC(=O)CC#N` was 0; that for `CC(C)C(=O)Nc1ccc(N2CCCCC2)cc1` was 0.
With `CC(=O)Nc1ccccc1OCc1ccccc1`, the NMR binding call turned out to be 0.
The value for `O=C(COc1ccccc1)Nc1cccc(F)c1` was 0; that for `O=C(NCc1nc2ccccc2[nH]1)c1ccco1` was 0; that for `CCOc1cccc(C(=O)Nc2nnn(C)n2)c1` was 0.

These data come from the supplement of paper PMC8426693.
